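Whole-cell growth test on Mycobacterium tuberculosis, read after 3 days in glucose-containing 7H9 medium; the read-out is not stated. Concentration: 50 µM. Higher reads as more growth inhibition (inferred: compounds with an IC50 in retests scored well above the rest). Size under these conditions: about 69,000 compounds, about 760 of them at 50% or above in at least one test.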

Each number is a percent effect as filed. The controls that fix the scale are not given in the record; negative values are as filed. The compounds are a random part of those screened. Two or more numbers in one place are separate tests of the same structure; such repeats can differ widely.

SMILES	effect
COCCS(=O)(=O)Nc1ccc(-n2nccc2C(F)(F)F)cc1	-6.162 & 4.811
N#Cc1cccc(CN(CCO)Cc2ccsc2)c1	2.52
O=C(NCC(O)c1cccc(F)c1)c1cccnc1O (stereo not drawn)	13.69
CCOCCCNC(=O)CCCC(=O)n1nc(C)c2ccccc21	-0.1503
COCCC1COC2(CCN(C(C)=O)CC2)C1 (stereo not drawn)	11.75
O=C(O)C(F)(F)F.[H][C@@]12OCCN(C(=O)c3cc(C)[nH]c3C)[C@@]1([H])CC[C@H]2OCCN(C)C	21.08
CC1CCC(NC(=O)CNC2(c3ccc(Br)cc3)CCOCC2)CC1 (stereo not drawn)	8.606
CC(=O)N1CCC(c2c(CN(C)C)cnc3cc(C)nn23)CC1	-44.88
O=C1CC(NCc2cccc(O)c2)CN1CCc1cccc(Cl)c1 (stereo not drawn)	-8.88
COCCCN1CCN(C(=O)C(c2cccc(F)c2)N(C)C)CC1 (stereo not drawn)	-9.234 & -4.842
O=C(c1ccccn1)N1CCC(S(=O)(=O)c2ccccc2)C1 (stereo not drawn)	8.686
CC(C)OCc1ccccc1CNC(=O)C(C)S(=O)(=O)C(C)C (stereo not drawn)	-15.14
O=C(CC1CCc2ccccc21)N1CCC(O)(c2cccnc2)CC1 (stereo not drawn)	11.95 & -0.218
Cl.Cl.OC(CN1CCN(Cc2ccc(F)c(F)c2)CC1)C1CC1 (stereo not drawn)	25.77 & -4.209
O=C(O)C1(Oc2ccc3ccccc3c2)CCN(c2ccncc2)CC1	-7.378
O=C(NCC1CCCO1)c1nc2c(s1)CCCN2c1ncccn1 (stereo not drawn)	-31.92
Cc1cccc(CCC(=O)Nc2ccnn2C2CCS(=O)(=O)C2)c1 (stereo not drawn)	-15
Cc1cc(N2CCN(Cc3ccc(C)o3)CC2)cc(C)n1	-9.089
[H][C@@]12CCCO[C@]1([H])[C@H](OCc1cccnc1)CN2C(=O)c1cccn1C	-11.29
CCn1c(C2CCCN(Cc3ccnc4ccccc34)C2)nn(C)c1=O (stereo not drawn)	10.37 & 1.695
CC(NC(=O)CCCOc1ccccc1)c1nnc2n1CCCCC2 (stereo not drawn)	-11.97
Cc1cccc(CNC(CN2CCN(C)CC2)c2ccccc2)c1 (stereo not drawn)	53.18
O=S(=O)(NCC1(O)CCOCC1)c1ccccc1Br	5.733 & 35.21
CC(C)c1nn(C)c(N(C)C)c1CNC(C)c1ccccc1F (stereo not drawn)	-3.626
N[C@@H](Cc1ccccc1)c1nnc(S(=O)(=O)Cc2ccccc2)o1	-20.87
Cc1nc(C)n(CC2CN(CCc3ccncc3)CCO2)n1 (stereo not drawn)	-3.106 & -3.577
O=c1[nH]c(CN2CCCC(Cn3cncn3)C2)nc2ccccc12 (stereo not drawn)	-12.84
COc1cc(C2(C(=O)NCCn3ccnc3)CCCC2)ccc1C	-1.121
CCN(Cc1cnn(C)c1)S(=O)(=O)c1ccc(NC(=O)C(C)(C)C)cc1	35.38
CC(=O)NCc1nc(CC(C)C)nn1-c1cccc(C)c1	7.603
O=C(O)C(F)(F)F.[H][C@@]12COC[C@@H](CC(=O)N3CCCCO3)[C@]1([H])CN(C1CCCC1)C2	2.324
COC(=O)[C@H](CC(C)C)NC(=O)c1snnc1-c1ccc(OC)cc1	1.671 & 16.69
CCOc1ccc2nc(CN3CCC(CN)C3)ccc2c1 (stereo not drawn)	54.76
Cc1ccc2nc(C3CCCN3Cc3csc(C)n3)[nH]c2c1 (stereo not drawn)	33.29
CN1C[C@@H](F)[C@@H](OCc2nc3ccccc3[nH]2)C1	2.719 & 0.4468
CS(=O)(=O)c1ccc(NCc2ccc(F)cc2)cn1	18.91
COC(=O)c1oc(CNC(C)(C)c2ccc3c(c2)OCO3)cc1C	8.096 & -6.659
Cc1cccnc1NC(=O)NC(C)Cn1cccn1 (stereo not drawn)	-14.43
CCn1ncc2c1C(COCC1CC1)CN(C(=O)c1cccs1)C2 (stereo not drawn)	-58.44
CCc1cnc(N2Cc3cnc(C(C)(C)C)nc3C2)nc1	20.45
CC(C)CC(=O)N1CC(=O)c2sc(NCCc3ccccc3)nc2C1	-19.24
COCC(=O)N1CCC(Nc2ccnc3ccc(Cl)cc23)CC1	-3.003
COC(=O)c1cc(C(=O)N2CCOCC2(C)C)n(-c2ccccc2)n1	12.61
O=C(c1cnccn1)N1CCN(Cc2cscn2)CC1	-19.43
CCn1cc(S(=O)(=O)NCc2ccnc(-n3ccnc3)c2)cn1	-0.4484
CC(=O)N1CCCC2(C1)CN(c1ncc(C)cn1)CCO2.O=C(O)C(F)(F)F (stereo not drawn)	14.48 & -0.7901
O=C(O)C(F)(F)F.O=C1COC2(CCN(CC3CC3)CC2)CN1c1cncnc1	-3.517
O=C(Cc1cn2ccccc2n1)N1CCCC(n2cccn2)C1 (stereo not drawn)	-36.8
Cn1cc(C2CCCN2C(=O)Cn2c(=O)oc3ccccc32)cn1 (stereo not drawn)	11.09
O=C(c1ccc2c(c1)CCCC2)N1CCn2ncnc2C1	31.28
CN(C(=O)CNCCn1cccn1)C1(C#N)CCCCC1	-14.17
CN(C)c1ncc(-c2cc(C(=O)NC(C)(C)CO)n(CC3CC3)c2)cn1	17.35
c1cnnc(N2CCCC(NCc3ccc(-n4ccnc4)cc3)C2)c1 (stereo not drawn)	-9.13

Some entries from above, unchanged:

For COCCCN1CCN(C(=O)C(c2cccc(F)c2)N(C)C)CC1 (stereo not drawn) the result was -9.234% & -4.842%.
For O=C(c1ccc2c(c1)CCCC2)N1CCn2ncnc2C1 the result was 31.28%.
For CCn1c(C2CCCN(Cc3ccnc4ccccc34)C2)nn(C)c1=O (stereo not drawn) the result was 10.37% & 1.695%.
For COC(=O)c1oc(CNC(C)(C)c2ccc3c(c2)OCO3)cc1C the result was 8.096% & -6.659%.
For COC(=O)[C@H](CC(C)C)NC(=O)c1snnc1-c1ccc(OC)cc1 the result was 1.671% & 16.69%.
For CCOCCCNC(=O)CCCC(=O)n1nc(C)c2ccccc21 the result was -0.1503%.
For CC(=O)NCc1nc(CC(C)C)nn1-c1cccc(C)c1 the result was 7.603%.

Data taken from ChEMBL document CHEMBL3988442, “University of Dundee, Small-Polar-MMV Screening Library” (2021).